In the supplement of paper PMC6078165:

Test system: MDAMB468
Experiment: relative JC-1 red fluorescence (viability) vs pre-drug, coculture with fibroblast (fraction); higher = more viable cancer cells
Description: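 JC-1 labelled TNBC cells cocultured 1:1 (1,500 cells each) with CellTrace Violet stained primary or stromal fibroblasts in 384-well plates in FluoroBrite medium, treated with one of 42 anticancer drugs at 0.1, 1, 10 or 100 uM. JC-1 red fluorescence (mitochondrial integrity in cancer cells only) was read by plate reader every 8 h for 72 h. Values are normalised to each well's pre-drug value. The stock of one drug was tenfold lower, so its dose labels may be too high.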

C=C1C[C@@H]2[C@H](CC[C@]3(C)C(=O)CC[C@@H]23)[C@@]2(C)C=CC(=O)C=C12 [Exemestane]
relative JC-1 red fluorescence
Settings | 8 h | 16 h | 24 h | 32 h | 40 h | 48 h | 56 h | 64 h | 72 h
10 µM, coculture fibroblast: C12385 | 0.894 | 0.834 | 0.831 | 0.794 | 0.765 | 0.749 | 0.692 | 0.651 | 0.632
10 µM, coculture fibroblast: H6013 | 0.90124 | 0.841 | 0.823 | 0.8103 | 0.779 | 0.79 | 0.762 | 0.751 | 0.697
10 µM, coculture fibroblast: H6019 | 0.8506 | 0.8218 | 0.793 | 0.738 | 0.697 | 0.68 | 0.617 | 0.586 | 0.561
10 µM, coculture fibroblast: H6076 | 0.939 | 0.97 | 0.9366 | 0.9506 | 0.884 | 0.874 | 0.828 | 0.813 | 0.85
10 µM, coculture fibroblast: H6231 | 0.843 | 0.919 | 0.9 | 0.917 | 0.857 | 0.843 | 0.805 | 0.782 | 0.792
10 µM, coculture fibroblast: HADF | 0.906 | 0.861 | 0.818 | 0.812 | 0.762 | 0.738 | 0.692 | 0.671 | 0.612
10 µM, coculture fibroblast: HCFa | 0.8946 | 0.812 | 0.789 | 0.761 | 0.706 | 0.704 | 0.649 | 0.615 | 0.561
10 µM, coculture fibroblast: HCPF | 0.862 | 0.962 | 0.888 | 0.887 | 0.807 | 0.77 | 0.714 | 0.692 | 0.675
10 µM, coculture fibroblast: HHSteC | 0.92451 | 0.8664 | 0.8383 | 0.8245 | 0.785 | 0.789 | 0.721 | 0.695 | 0.65
10 µM, coculture fibroblast: HMF | 0.84 | 0.967 | 0.8746 | 0.871 | 0.802 | 0.782 | 0.727 | 0.695 | 0.671
10 µM, coculture fibroblast: HPFa | 0.953 | 0.895 | 0.865 | 0.813 | 0.779 | 0.768 | 0.704 | 0.668 | 0.578
10 µM, coculture fibroblast: HUF | 0.931 | 0.853 | 0.7963 | 0.7347 | 0.68442 | 0.65 | 0.611 | 0.588 | 0.561
10 µM, coculture fibroblast: Hs5 | 0.88 | 0.9792 | 0.96 | 0.956 | 0.906 | 0.884 | 0.84 | 0.8051 | 0.8219
10 µM, coculture fibroblast: Hs27A | 0.8818 | 0.8269 | 0.796 | 0.807 | 0.7494 | 0.7437 | 0.6934 | 0.671 | 0.612
10 µM, coculture fibroblast: Hs343T | 0.881 | 0.948 | 0.918 | 0.902 | 0.851 | 0.833 | 0.775 | 0.75 | 0.715
10 µM, coculture fibroblast: WS1 | 0.879 | 0.786 | 0.763 | 0.703 | 0.668 | 0.638 | 0.594 | 0.554 | 0.526
100 µM, coculture fibroblast: C12385 | 0.886 | 0.8459 | 0.854 | 0.807 | 0.764 | 0.75282 | 0.706 | 0.6686 | 0.636
100 µM, coculture fibroblast: H6013 | 0.874 | 0.8371 | 0.78 | 0.762 | 0.716 | 0.703 | 0.669 | 0.641 | 0.586
100 µM, coculture fibroblast: H6019 | 0.8853 | 0.854 | 0.814 | 0.735 | 0.667 | 0.632 | 0.567 | 0.521 | 0.495
100 µM, coculture fibroblast: H6076 | 0.91 | 0.933 | 0.9059 | 0.923 | 0.85 | 0.85 | 0.819 | 0.804 | 0.869
100 µM, coculture fibroblast: H6231 | 0.8585 | 0.9249 | 0.876 | 0.882 | 0.823 | 0.795 | 0.7435 | 0.716 | 0.697
100 µM, coculture fibroblast: HADF | 0.8882 | 0.866 | 0.82 | 0.821 | 0.765 | 0.728 | 0.661 | 0.637 | 0.566
100 µM, coculture fibroblast: HCFa | 0.886 | 0.901 | 0.867 | 0.874 | 0.812 | 0.807 | 0.745 | 0.701 | 0.647
100 µM, coculture fibroblast: HCPF | 0.9242 | 0.919 | 0.946 | 0.931 | 0.864 | 0.843 | 0.79 | 0.775 | 0.77
100 µM, coculture fibroblast: HHSteC | 0.8906 | 0.8738 | 0.855 | 0.848 | 0.811 | 0.8133 | 0.721 | 0.682 | 0.609
100 µM, coculture fibroblast: HMF | 0.869 | 0.9772 | 0.94 | 0.912 | 0.8405 | 0.816 | 0.764 | 0.737 | 0.714
100 µM, coculture fibroblast: HPFa | 0.9276 | 0.8852 | 0.858 | 0.809 | 0.767 | 0.7742 | 0.707 | 0.682 | 0.611
100 µM, coculture fibroblast: HUF | 0.9246 | 0.843 | 0.826 | 0.7701 | 0.7352 | 0.716 | 0.659 | 0.6394 | 0.6071
100 µM, coculture fibroblast: Hs5 | 0.98 | 0.918 | 0.925 | 0.93 | 0.884 | 0.873 | 0.845 | 0.813 | 0.8376
100 µM, coculture fibroblast: Hs27A | 0.8497 | 0.816 | 0.743 | 0.739 | 0.67 | 0.653 | 0.576 | 0.521 | 0.439
100 µM, coculture fibroblast: Hs343T | 0.878 | 0.899 | 0.893 | 0.899 | 0.828 | 0.81 | 0.777 | 0.771 | 0.765
100 µM, coculture fibroblast: WS1 | 0.903 | 0.879 | 0.847 | 0.79 | 0.729 | 0.675 | 0.649 | 0.601 | 0.589

Values are relative to the signal before dosing, not to a vehicle control; the signal also falls without drug.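 Fibroblast labels denote human fibroblasts, mainly primary ones from uterus (C12385, HUF), lung (H6013), bone (Hs27A), adrenal (HADF) and skin (WS1), plus mammary HMF and breast cancer-associated Hs343T. Cancer cells are basal-like or mesenchymal-like triple-negative breast cancer lines. A hit is a response shift exceeding 3x replicate standard deviation. The tissue of the other fibroblasts is not given here.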
